According to patent US9370764B2, “Compositions and particles containing cellulosic fibers and stabilized-and/or activated-urease inhibitors, as well as methods of making and using the same” (INTERNATIONAL PAPER COMPANY, priority 2007, dated 2016):
Some results were stated once for a whole list of compounds, not compound by compound.

Test: Solubility of urease inhibitors in water with and without hydroxyethyl urea

For NP(N)(=O)Oc1ccccc1 [PPDA, phenylphosphorodiamidate], the “solubility in water (concentration)” value (water with hydroxyethyl urea) was 3%-5% and the “solubility in water (concentration)” value (water without hydroxyethyl urea) was 0.2%-4.4%.
